At least one compound was matched to its structure with a doubt left.
Molecular target: KOR (Homo sapiens, UniProt P41145)
Assay: KOR-mediated β-arrestin2 recruitment, DiscoveRx PathHunter assay, U2OS-hMOR-β-arrestin2 cells
Format: cell-based

By UniProt entry, the sequences of proteins in these tests, tags left out. Where a name states a change or a piece, a line headed by the entry shows the natural chain unless it says otherwise.
UniProt P41145: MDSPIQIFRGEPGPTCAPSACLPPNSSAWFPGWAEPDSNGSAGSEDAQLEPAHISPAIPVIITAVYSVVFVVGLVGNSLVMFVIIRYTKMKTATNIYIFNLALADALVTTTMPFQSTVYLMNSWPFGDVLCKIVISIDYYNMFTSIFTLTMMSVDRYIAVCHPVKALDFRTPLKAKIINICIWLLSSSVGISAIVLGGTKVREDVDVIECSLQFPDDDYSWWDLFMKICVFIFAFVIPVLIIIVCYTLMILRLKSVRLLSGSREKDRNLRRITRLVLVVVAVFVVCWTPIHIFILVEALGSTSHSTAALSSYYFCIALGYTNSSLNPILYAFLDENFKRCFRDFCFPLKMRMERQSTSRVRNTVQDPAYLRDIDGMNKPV

## Oc1cccc(CCN(CCc2ccccc2)CC2CCCC2)c1 [Compound 2, 3-[2-[(Cyclopentylmethyl)(phenethyl)amino]ethyl]phenol]
  Bias factor: 162
